Source: patent US10717757B2, “Ketolides having antibacterial activity” (BIOPHARMATI SA, priority 2016, dated 2020)
Converted amounts (≈) assume the structure as drawn.

Experiments:
[1] = system: S. pneumoniae AUCC479, macrolide & penicillin sensitive; experiment: Minimum inhibitory concentration (MIC), broth microdilution, AUCC479; format: cell-based, Streptococcus pneumoniae
Protocol: Protocols for Determining Minimum Inhibitory Concentration (MIC) of Test Compounds Against Streptococcus Pneumoniae Strains
(§1) The test strains are revived from frozen stock on blood agar plates and incubated at 35±2° C. for 18-20 hours in 5% CO2. Colonies are directly suspended from an overnight grown agar culture in CAMHB/saline and optical density adjusted to 0.5 McFarland turbidity standard (1-2×10^8 cfu/mL). Adjusted cultures are further diluted 1:100 using CAMHB such that after inoculation each well finally contains ˜5×10^5 cfu/mL. For broth dilution testing of Streptococcus species, CAMHB is supplemented with 2.5-5% v/v LHB. Colony counts of inoculum suspension is estimated by ten-fold serial dilutions and plating each dilution on agar plate. After incubation, the plates are observed for growth and microbial counts determined.
(§2) Compounds are weighed and dissolved in water/DMSO/other solvent to yield 1 mg/mL stock solution. Serial two-fold dilutions of the test compounds and reference antibiotics are prepared. 50 μL of the diluted drug solutions are dispensed in wells of microtiter trays (96 well).
(§3) To each of the wells of the microtiter tray, 50 μL of the diluted organism are inoculated to obtain a final inoculum density of ˜5×10^5 cfu/mL. […]
(§4) After incubation period, growth of organism in the wells are detected by unaided eye facilitated by a viewing device. […]

[2] = system: S. pneumoniae AUCC488, macrolide & penicillin resistant; experiment: Minimum inhibitory concentration (MIC), broth microdilution, AUCC488; format: cell-based, Streptococcus pneumoniae
Protocol: (§5) Example 17. Protocols for Determining Minimum Inhibitory Concentration (MIC) of Test Compounds Against Streptococcus Pneumoniae Strains
as §1, §2, §3, §4

[3] = system: S. pneumoniae AUCC489, macrolide & penicillin resistant; experiment: Minimum inhibitory concentration (MIC), broth microdilution, AUCC489; format: cell-based, Streptococcus pneumoniae
Protocol: as §5, §1, §2, §3, §4

[4] = system: S. pneumoniae ATCC 49619 (CLSI QC strain); experiment: Minimum inhibitory concentration (MIC), broth microdilution, QC strain; format: cell-based; conditions: Streptococcus pneumoniae; ATCC49619 QC strain; MIC in duplicates; read-out: MIC Strep. Pneumoniae ATCC49619 QC strain
Protocol: as §5, §1, §2, §3, §4

[5] = system: S. pneumoniae AUCC483, macrolide resistant & penicillin sensitive; experiment: Minimum inhibitory concentration (MIC), broth microdilution, AUCC483; format: cell-based, Streptococcus pneumoniae
Protocol: as §5, §1, §2, §3, §4

CCC[C@@H]1C[C@@H](C(=O)N[C@@H]([C@H]2O[C@H](SC)[C@H](O)[C@@H](O)[C@H]2O)[C@H](C)Cl)N(C)C1 [clindamycin, reference compound]
MIC Strep. Pneumoniae AUCC 479 penS, macS [1]: 0.015 to 0.03 µg/mL | MIC Strep. Pneumoniae AUCC 488 penR, macR M or iMLS [2]: 0.06 µg/mL (≈ 0.141 µM) | MIC Strep. Pneumoniae AUCC 489 penR, macR cMLS [3]: >64 µg/mL | MIC [4]: 0.06 µg/mL (≈ 0.141 µM) | MIC Strep. Pneumoniae AUCC 483 penS, macR cMLS [5]: ≥64 µg/mL
